Experimental data as given in US20160046678A1 (ZYNGENIA, published 2016).
These are yes or no findings as the source states them, for the method shown. Some results given as binding are weak or reduced against the parent protein; the word gives no strength.

The chains behind the UniProt entries cited, without tags or fusion partners. Residues count along the entry.
UniProt P08887, residues 20-358: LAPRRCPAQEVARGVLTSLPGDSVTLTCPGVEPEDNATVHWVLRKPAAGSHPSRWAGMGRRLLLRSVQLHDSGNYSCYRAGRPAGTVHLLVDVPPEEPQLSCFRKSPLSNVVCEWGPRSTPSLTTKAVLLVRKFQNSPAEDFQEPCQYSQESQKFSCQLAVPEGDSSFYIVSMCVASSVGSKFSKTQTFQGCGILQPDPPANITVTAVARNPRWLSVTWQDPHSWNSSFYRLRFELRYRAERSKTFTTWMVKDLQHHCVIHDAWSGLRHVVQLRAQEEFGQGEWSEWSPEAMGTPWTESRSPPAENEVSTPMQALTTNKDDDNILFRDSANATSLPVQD

biological target: IL6R (UniProt P08887); assay: peptide selection, Example 48

Row | binding | Binder
1 | binds | SDLIWCELDMVFRECHGAA [ILC99]
2 | binds | SHEEWTCFPYLCSDWLQ [ILC214]
3 | binds | SEEDWTCFPYLCRILVE [ILC185]
4 | binds | SEEEWTCFPYLCTNWLD [ILC195]
5 | binds | SQEEWTCFPYLCSYWLE [ILC166]
6 | binds | SHEEWTCFPTLCTDWLQ [ILC212]
7 | binds | SRCDRVLGTHINL [ILC144]
8 | binds | SEEEWTCFPYLCSLWVD [ILC215]
9 | binds | SEEEWTCFPYLCRNWLD [ILC191]
10 | binds | SEEEWTCFPYLCSYLLH [ILC175]
11 | binds | SDLVLCEWDMVVRECHGVF [ILC97]
12 | binds | SHEEWTCFPYLCKILLE [ILC209]
13 | binds | SDLILCNLEMVFKECHGVI [ILC103]
14 | binds | SEEDWTCFPYLCRILLD [ILC193]
15 | binds | SHEDWTCFPYLCTLLLQ [ILC206]
16 | binds | SHEEWTCFPYLCTFWAE [ILC164]
17 | binds | SEEEWTCFPYLCSFWLE [ILC205]
18 | binds | SDEEWTCFPYLCSQWVE [ILC178]
19 | binds | SEEEWTCFPYLCSIWLE [ILC165]
20 | binds | SDEEWTCFPTLCTDWLQ [ILC219]
21 | binds | SDEEWTCFPYLCSIWAQ [ILC201]
22 | binds | SEEEWTCFPYLCTNWLH [ILC182]
23 | binds | SHEDWTCFPYLCKVLLH [ILC170]
24 | binds | SHEEWTCFPYLCSLWAQ [ILC218]

Row | binding | Binder
25 | binds | SHEEWTCFPYLCKYWLH [ILC169]
26 | binds | SHEEWTCFPYLCSVWAQ [ILC216]
27 | binds | SQEEWTCFPYLCSHWLD [ILC220]
28 | binds | SEEEWTCFPYLCREWAH [ILC179]
29 | binds | SHEEWTCFPYLCENWLH [ILC171]
30 | binds | SEEEWTCFPYLCTDWVH [ILC172]
31 | binds | SELILCALEMVFNECHGAV [ILC96]
32 | binds | DSFGCTWEVWGRECHPQL [ILC90]
33 | binds | SEEEWTCFPYLCGLWVE [ILC192]
34 | binds | SEEEWTCFPYLCTLWSQ [ILC224]
35 | binds | SQEEWTCFPYLCREWVE [ILC177]
36 | binds | SSLILCDLEMVFKECHGVL [ILC106]
37 | binds | SEEEWTCFPYLCSIWLD [ILC211]
38 | binds | SEEEWTCFPYLCTILLQ [ILC173]
39 | binds | SQEEWTCFPYLCTYWLQ [ILC199]
40 | binds | SEEEWTCFPYLCSHWAE [ILC208]
41 | binds | SEEEWTCFPYLCSYWLD [ILC180]
42 | binds | SHEEWTCFPYLCGKWAE [ILC186]
43 | binds | SDEEWTCFPYLCSYWVD [ILC202]
44 | binds | SQEEWTCFPYLCSYWLQ [ILC210]
45 | binds | SHEDWTCFPYLCRILVE [ILC183]
46 | binds | SEAEWTCFPYLCSDWLH [ILC221]
47 | binds | SEEEWTCFPSLCTIWLQ [ILC213]
48 | binds | SEEEWTCFPYLCSQWLE [ILC181]

Row | binding | Binder
49 | binds | SDEEWTCFPTLCSLWSE [ILC225]
50 | binds | SHEEWTCFPYLCTYWSH [ILC200]
51 | binds | SDEEWTCFPYLCSVWVE [ILC174]
52 | binds | SQEEWTCFPYLCSFWSE [ILC167]
53 | binds | SDEEWTCFPSLCSFWLE [ILC223]
54 | binds | SEFVYCMLDMVFRECHGTA [ILC95]
55 | binds | SQEEWTCFPYLCTDWLH [ILC204]
56 | binds | SHEDWTCFPYLCRVLLE [ILC189]
57 | binds | SEIVLCEWAMVLAECHGAA [ILC108]
58 | binds | SEEEWTCFPYLCGQWVE [ILC222]
59 | binds | SHEDWTCFPYLCKYLLD [ILC176]
60 | binds | SHEEWTCFPYLCRILLD [ILC203]
61 | binds | SSFVFCDLEMVFRECHGVF [ILC102]
62 | binds | SDEEWTCFPYLCTFWLQ [ILC190]
63 | binds | SDEEWTCFPSLCTQLLQ [ILC184]
64 | binds | SEFIFCDLEMVFRECHGTT [ILC93]
65 | binds | SEEEWTCFPYLCTHWLH [ILC197]
66 | binds | SEEEWTCFPSLCNFWSQ [ILC198]
67 | binds | SHEDWTCFPYLCRILSH [ILC194]
68 | binds | SHEDWTCFPYLCSILLQ [ILC187]
69 | binds | SHEDWTCFPYLCNILLQ [ILC207]
70 | binds | SEEEWTCFPYLCSDWLE [ILC196]
